Whole data set: some 33,000 sequences, median “E-score (-0.5 to 0.5)” near -0.016, cut for the highest 2% near 0.3. This is one part of the list.
Each sequence was assayed against T1, Yer184c (UniProt P39961) (assay: PBM E-score (8-mer binding enrichment) (E-score (-0.5 to 0.5)); higher = stronger / more preferred TF binding). Conditions: protein concentration: 100 nM; construct: GST-full length.
T1 sequence: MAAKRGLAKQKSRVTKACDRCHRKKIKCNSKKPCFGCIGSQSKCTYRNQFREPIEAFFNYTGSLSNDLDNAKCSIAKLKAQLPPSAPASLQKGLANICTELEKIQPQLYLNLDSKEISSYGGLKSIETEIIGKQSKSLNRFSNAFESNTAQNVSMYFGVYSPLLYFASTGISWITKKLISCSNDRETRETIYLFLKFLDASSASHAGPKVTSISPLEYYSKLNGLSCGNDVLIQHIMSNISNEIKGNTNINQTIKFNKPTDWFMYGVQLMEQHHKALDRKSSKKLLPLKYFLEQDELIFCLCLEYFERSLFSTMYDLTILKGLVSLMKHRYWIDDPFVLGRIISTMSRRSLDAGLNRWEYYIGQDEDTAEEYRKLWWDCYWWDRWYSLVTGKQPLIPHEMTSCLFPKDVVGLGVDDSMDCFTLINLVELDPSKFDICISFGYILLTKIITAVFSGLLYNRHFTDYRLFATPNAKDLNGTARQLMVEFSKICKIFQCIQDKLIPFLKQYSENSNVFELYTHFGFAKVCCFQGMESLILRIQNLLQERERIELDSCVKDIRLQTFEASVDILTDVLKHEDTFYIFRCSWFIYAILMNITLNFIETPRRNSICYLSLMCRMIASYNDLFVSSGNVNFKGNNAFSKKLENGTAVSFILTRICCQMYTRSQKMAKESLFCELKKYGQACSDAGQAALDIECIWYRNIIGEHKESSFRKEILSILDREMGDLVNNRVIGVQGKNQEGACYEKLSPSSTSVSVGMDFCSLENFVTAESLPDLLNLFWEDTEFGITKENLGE
In short: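 Universal all-10-mer Agilent arrays, double-stranded by primer extension on fresh or once-stripped slides, were probed with about 100-200 nM GST-tagged yeast transcription factors made by PURExpress. Fluorescent anti-GST detected bound protein, and masliner normalised the scans. E-scores from the Universal PBM Analysis Suite were given to each ungapped eight-base word pooled with its reverse complement.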

| Sequence | PBM E-score |
| --- | --- |
| ACTCCGAA | 0.241 |
| AAAAGGTA | -0.0866 |
| CATGTAAA | -0.0482 |
| ACTATTAG | 0.0716 |
| GATAAAAC | 0.305 |
| TACCCGGA | 0.354 |
| CCGAGTCA | 0.198 |
| CCAATGGC | -0.109 |
| AGTCAGCC | -0.105 |
| AGGAGTGG | -0.149 |
| CACTAGGC | -0.175 |
| CACCAAAA | 0.0384 |
| ATTCAAGC | 0.181 |
| AACACTGC | 0.0293 |
| ACTACGGA | 0.155 |
| TCTGGTCA | -0.0629 |
| TAAGGGCA | 0.0258 |
| CAATCATA | 0.138 |
| ATCGGTAG | 0.141 |
| ACCAGGGC | -0.2 |
| AAGTTCCA | -0.106 |
| ATAGTTTG | 0.0884 |

| Sequence | PBM E-score |
| --- | --- |
| CAAGGGCC | -0.27 |
| AGCCACGC | -0.126 |
| TCCCCCCA | -0.377 |
| CAAATGAA | 0.189 |
| AATCCTAG | 0.0878 |
| GCCTTGAA | -0.133 |
| ATGCGAGG | -0.122 |
| GCGGTTTA | 0.0396 |
| ATGCGATA | 0.0577 |
| CCCGCAGA | 0.08 |
| AAAACCCC | -0.218 |
| TCTACACA | -0.0166 |
| ATGGCTCC | -0.102 |
| CCCGGTCG | 0.0849 |
| AGCTGAGA | -0.0518 |
| AGCTAGAA | 0.00279 |
| GGACGACC | -0.0909 |
| CAGCAACG | 0.222 |
| AAACGTTC | -0.034 |
| AAATTGCC | 0.168 |
| GAGGCTCC | -0.045 |
| TAAAGTTA | 0.212 |

| Sequence | PBM E-score |
| --- | --- |
| CCGCGACC | -0.0489 |
| CGAGCTAC | -0.077 |
| TACGGTCA | 0.0814 |
| AGGTTGCG | -0.212 |
| ACCGTTGC | -0.0405 |
| TCGCGGCA | 0.068 |
| CCTACGGC | -0.00822 |
| CACGACTG | -0.288 |
| ATGCGATC | 0.0208 |
| CATTAATC | 0.0889 |
| GGAGGTCA | -0.24 |
| AGGACCAT | -0.148 |
| GATCATAA | 0.11 |
| AAACATAC | -0.0272 |
| AGTCCTAC | 0.0339 |
| GCGAACCA | 0.0843 |
| CCACGCAG | -0.0702 |
| ATGAAAGG | -0.0293 |
| AATTATAA | 0.216 |
| TACCTTGA | 0.117 |
| AAAGATGC | -0.0567 |
| ATACCGAT | 0.11 |

| Sequence | PBM E-score |
| --- | --- |
| TAAGAAGA | 0.232 |
| ACCATACT | -0.0084 |
| CGACTCCC | -0.0756 |
| CTAATAGC | -0.155 |
| AGTATGGG | -0.138 |
| AAATAGGC | 0.066 |
| ATGTCAAG | 0.00737 |
| GAAGACCC | -0.23 |
| TAAATGGA | 0.138 |
| CCCAAATA | -0.0671 |
| GAGGCGCA | -0.164 |
| AAGTGCGC | -0.0101 |
| GTATAAAC | 0.256 |
| CATAAGAA | 0.263 |
| GGAGCCTA | 0.0783 |
| ATACATAG | 0.0797 |
| CATGACAG | -0.0479 |
| AACTTCAA | 0.166 |
| ATAAAACC | -0.0255 |
| CTACGCGA | -0.0696 |

An excerpt of these results, as labelled records.
CCGAGTCA
  PBM E-score = 0.198
AGTCAGCC
  PBM E-score = -0.105
CACTAGGC
  PBM E-score = -0.175
CAAGGGCC
  PBM E-score = -0.27
